The target in this experiment is T1, ULP-2 N-terminal domain (Gal4-DB::ULP-2 bait, first 5 coding exons, bp 4-771) (C. elegans) (UniProt Q23238).
T1 sequence: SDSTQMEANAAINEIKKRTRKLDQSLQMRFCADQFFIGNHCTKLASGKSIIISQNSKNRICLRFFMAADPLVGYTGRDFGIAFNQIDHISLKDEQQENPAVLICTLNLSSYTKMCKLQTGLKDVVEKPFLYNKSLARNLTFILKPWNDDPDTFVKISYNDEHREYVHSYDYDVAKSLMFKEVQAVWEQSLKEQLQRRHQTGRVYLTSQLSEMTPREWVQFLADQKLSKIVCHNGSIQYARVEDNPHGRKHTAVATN
The experiment can be described thus: two-hybrid.

Results are given in words; binding and its absence hold for the method and conditions named. Some binding calls cover weakened binding; strength is not graded here.

Among the data in doi:10.1101/2024.02.27.582283 are binding values, retold here.

B1: SET-26 N-terminal fragment (residues 1-575) (domain or fragment, UniProt Q9U263 1-575)
chain: MADGEHTLPADEELFEQPPLQQQQPEIAEPIVMAQEPIQGVSEDPQASEATHEAPDNYPVDHQMENQEFYQEPQIPEPQQIPQIPVFQPAAYNPPNYVAPQQRANNFGEPAAAADSRPLTEEEQLAAERPTEDTVWIDSDDDTDVEEAILRANFWLPYSDHNYDPPDPADRIILPTEGPFPCIAGLDEDCNIVKQWMPEDAVGPGSPGTQYRRNQQTGGGLPSTSVAPQQQQLPVRHNIQNRPMVAAQPFSIGGNQVEYGGIGGMDSRMQQRGVVRDGPQYRVMNDFGNGLPMRGQLPPRNSPAANAINRVREQQQQMYHQAGARGSLQQRVPAPAAPTPGSYQHIVNAVPVGGANPMRRVPPQARPGMIGGAANNNRARPIHVTRPMDTQEFEHPVAPAAAAPPRRVVDVAPHRMTPEQRQELQQMNRQRAAPQFPAAAAQRSAEKIVIQQRPGASSSRAPRPSMAQEDLLRSPTRRLSERVPQEHQTPVLEPRRFQVKVTDTYSTPIPKASDQLPAQLTEEDPPEESAAAAAPEDVPDAAPEDPPKGILKPTPPHRMTQEEKNAHFARLTTDK
Take B1: the binding entry is recorded as “binds”.
